Where two headings read alike, the source gives them in different places. No constants are given. Whether binding was seen depends on the method and setting. Binding seen in cells or lysates may run through a third protein. Some results given as binding are weak or reduced against the parent protein; the word gives no strength. For some of these results: Sequences can lack the tags named with a protein.

Sequences of proteins named here, by UniProt entry; tags and fusion partners are left off.
UniProt Q15648: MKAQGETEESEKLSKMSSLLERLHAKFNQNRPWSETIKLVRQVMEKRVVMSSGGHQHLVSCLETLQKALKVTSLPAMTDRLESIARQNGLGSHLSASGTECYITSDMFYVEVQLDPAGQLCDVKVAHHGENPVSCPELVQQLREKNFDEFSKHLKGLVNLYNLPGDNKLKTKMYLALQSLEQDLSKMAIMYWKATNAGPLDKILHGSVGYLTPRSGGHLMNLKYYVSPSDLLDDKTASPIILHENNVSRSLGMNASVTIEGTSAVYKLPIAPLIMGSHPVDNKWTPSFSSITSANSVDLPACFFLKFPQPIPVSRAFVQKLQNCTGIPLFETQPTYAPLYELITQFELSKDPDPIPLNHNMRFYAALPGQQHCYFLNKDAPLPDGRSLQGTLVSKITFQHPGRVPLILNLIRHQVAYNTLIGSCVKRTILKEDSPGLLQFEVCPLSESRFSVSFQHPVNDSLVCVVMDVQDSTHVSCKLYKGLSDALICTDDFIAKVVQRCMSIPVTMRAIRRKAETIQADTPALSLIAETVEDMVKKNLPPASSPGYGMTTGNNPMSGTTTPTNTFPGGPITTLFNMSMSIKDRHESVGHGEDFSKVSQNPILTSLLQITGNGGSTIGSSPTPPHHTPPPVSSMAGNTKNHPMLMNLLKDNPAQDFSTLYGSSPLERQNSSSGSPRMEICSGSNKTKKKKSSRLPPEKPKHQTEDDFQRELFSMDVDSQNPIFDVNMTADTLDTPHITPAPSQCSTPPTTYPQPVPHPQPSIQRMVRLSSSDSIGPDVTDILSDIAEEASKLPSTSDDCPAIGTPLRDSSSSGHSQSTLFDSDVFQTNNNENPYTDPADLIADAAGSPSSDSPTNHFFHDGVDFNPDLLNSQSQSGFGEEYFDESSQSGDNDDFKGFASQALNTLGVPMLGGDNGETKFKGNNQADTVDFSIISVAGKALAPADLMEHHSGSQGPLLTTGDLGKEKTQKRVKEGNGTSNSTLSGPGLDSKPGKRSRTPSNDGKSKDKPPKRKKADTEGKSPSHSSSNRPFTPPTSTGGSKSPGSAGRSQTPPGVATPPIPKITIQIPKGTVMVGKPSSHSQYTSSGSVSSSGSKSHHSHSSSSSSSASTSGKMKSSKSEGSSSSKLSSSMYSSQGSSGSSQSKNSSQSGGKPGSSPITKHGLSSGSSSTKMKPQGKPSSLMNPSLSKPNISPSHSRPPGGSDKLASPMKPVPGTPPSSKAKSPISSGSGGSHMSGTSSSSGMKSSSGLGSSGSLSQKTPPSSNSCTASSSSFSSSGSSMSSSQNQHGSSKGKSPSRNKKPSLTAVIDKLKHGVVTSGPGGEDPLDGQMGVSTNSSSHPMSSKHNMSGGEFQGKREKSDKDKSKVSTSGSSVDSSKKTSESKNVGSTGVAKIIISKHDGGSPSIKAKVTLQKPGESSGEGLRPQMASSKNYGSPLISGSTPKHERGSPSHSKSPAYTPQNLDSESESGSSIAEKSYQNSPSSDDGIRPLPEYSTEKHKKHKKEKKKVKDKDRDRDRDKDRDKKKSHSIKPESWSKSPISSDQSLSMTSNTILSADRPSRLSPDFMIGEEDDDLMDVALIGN
UniProt P25490: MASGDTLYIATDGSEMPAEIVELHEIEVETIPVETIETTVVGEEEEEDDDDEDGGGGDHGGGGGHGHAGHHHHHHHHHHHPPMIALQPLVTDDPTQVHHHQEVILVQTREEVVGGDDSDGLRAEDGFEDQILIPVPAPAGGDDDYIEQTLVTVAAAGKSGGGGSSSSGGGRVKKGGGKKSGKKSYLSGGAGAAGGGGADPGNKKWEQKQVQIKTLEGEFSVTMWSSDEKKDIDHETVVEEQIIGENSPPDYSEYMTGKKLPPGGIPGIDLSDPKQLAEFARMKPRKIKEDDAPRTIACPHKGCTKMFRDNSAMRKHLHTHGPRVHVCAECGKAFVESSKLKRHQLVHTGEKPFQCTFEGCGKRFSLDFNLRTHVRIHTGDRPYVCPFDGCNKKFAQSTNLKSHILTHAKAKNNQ

Holding throughout (assay): co-IP
Test [1] deals with T1, Flag-MED16, full length (human) (UniProt Q9Y2X0).
T1 sequence: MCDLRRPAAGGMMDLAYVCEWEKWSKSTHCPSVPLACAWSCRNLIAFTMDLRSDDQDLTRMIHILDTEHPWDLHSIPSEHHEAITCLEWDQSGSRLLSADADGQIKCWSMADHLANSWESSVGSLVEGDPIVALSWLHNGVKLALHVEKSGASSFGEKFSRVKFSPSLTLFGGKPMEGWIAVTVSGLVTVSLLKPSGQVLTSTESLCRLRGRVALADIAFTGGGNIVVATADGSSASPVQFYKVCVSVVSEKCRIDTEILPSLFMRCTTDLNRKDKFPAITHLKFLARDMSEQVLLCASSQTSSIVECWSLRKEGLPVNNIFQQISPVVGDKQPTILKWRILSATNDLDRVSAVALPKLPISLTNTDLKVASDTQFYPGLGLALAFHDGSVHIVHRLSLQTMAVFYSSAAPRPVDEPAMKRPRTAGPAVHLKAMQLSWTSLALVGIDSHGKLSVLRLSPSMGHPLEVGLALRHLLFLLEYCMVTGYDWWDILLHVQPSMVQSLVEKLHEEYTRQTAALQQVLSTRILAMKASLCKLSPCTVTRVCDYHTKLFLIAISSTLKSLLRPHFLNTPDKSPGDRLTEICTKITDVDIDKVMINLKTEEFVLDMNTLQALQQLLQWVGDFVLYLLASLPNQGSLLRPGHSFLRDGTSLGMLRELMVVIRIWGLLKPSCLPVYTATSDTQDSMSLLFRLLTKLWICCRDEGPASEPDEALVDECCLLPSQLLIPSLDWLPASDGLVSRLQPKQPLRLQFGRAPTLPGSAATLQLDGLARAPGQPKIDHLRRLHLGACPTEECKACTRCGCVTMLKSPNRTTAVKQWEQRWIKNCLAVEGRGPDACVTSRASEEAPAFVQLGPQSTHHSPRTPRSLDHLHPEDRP

Test [2] concerns the target T2, Mediator subunit MED16 (endogenous) (human (endogenous in 293T and HeLa)) (UniProt Q9Y2X0).
T2 sequence: T1 sequence

Test [3] addresses T2, Mediator subunit MED16 (endogenous) (human (endogenous in 293T and HeLa)). The source holds these as a separate data set.
For test [4] the target is unchanged. This is another data set of the same source.

With “MED1 (endogenous) (from UniProt Q15648 1-1581)”, the binding result in test [1] and in test [2] was “binds” throughout. “YY1 (endogenous) (from UniProt P25490 1-414)”: the binding result in test [3] and in test [2] was “binds” in each case.

B1: UBP1 (endogenous) (protein, UniProt Q9NZI7 1-540)
chain: MAWVLKMDEVIESGLVHDFDASLSGIGQELGAGAYSMSDVLALPIFKQEDSSLPLDGETEHPPFQYVMCAATSPAVKLHDETLTYLNQGQSYEIRMLDNRKMGDMPEINGKLVKSIIRVVFHDRRLQYTEHQQLEGWKWNRPGDRLLDLDIPMSVGIIDTRTNPSQLNAVEFLWDPAKRTSAFIQVHCISTEFTPRKHGGEKGVPFRIQVDTFKQNENGEYTDHLHSASCQIKVFKPKGADRKQKTDREKMEKRTAHEKEKYQPSYDTTILTEMRLEPIIEDAVEHEQKKSSKRTLPADYGDSLAKRGSCSPWPDAPTAYVNNSPSPAPTFTSPQQSTCSVPDSNSSSPNHQGDGASQTSGEQIQPSATIQETQQWLLKNRFSSYTRLFSNFSGADLLKLTKEDLVQICGAADGIRLYNSLKSRSVRPRLTIYVCREQPSSTVLQGQQQAASSASENGSGAPYVYHAIYLEEMIASEVARKLALVFNIPLHQINQVYRQGPTGIHILVSDQMVQNFQDESCFLFSTVKAESSDGIHIILK
In the case of B1, the binding entry in test [4] and in test [3] was “binds” throughout.

B2: MED23 (endogenous) (protein, UniProt Q9ULK4 1-1368)
chain: METQLQSIFEEVVKTEVIEEAFPGMFMDTPEDEKTKLISCLGAFRQFWGGLSQESHEQCIQWIVKFIHGQHSPKRISFLYDCLAMAVETGLLPPRLVCESLINSDTLEWERTQLWALTFKLVRKIIGGVDYKGVRDLLKVILEKILTIPNTVSSAVVQQLLAAREVIAYILERNACLLPAYFAVTEIRKLYPEGKLPHWLLGNLVSDFVDTFRPTARINSICGRCSLLPVVNNSGAICNSWKLDPATLRFPLKGLLPYDKDLFEPQTALLRYVLEQPYSRDMVCNMLGLNKQHKQRCPVLEDQLVDLVVYAMERSETEEKFDDGGTSQLLWQHLSSQLIFFVLFQFASFPHMVLSLHQKLAGRGLIKGRDHLMWVLLQFISGSIQKNALADFLPVMKLFDLLYPEKEYIPVPDINKPQSTHAFAMTCIWIHLNRKAQNDNSKLQIPIPHSLRLHHEFLQQSLRNKSLQMNDYKIALLCNAYSTNSECFTLPMGALVETIYGNGIMRIPLPGTNCMASGSITPLPMNLLDSLTVHAKMSLIHSIATRVIKLAHAKSSVALAPALVETYSRLLVYMEIESLGIKGFISQLLPTVFKSHAWGILHTLLEMFSYRMHHIQPHYRVQLLSHLHTLAAVAQTNQNQLHLCVESTALRLITALGSSEVQPQFTRFLSDPKTVLSAESEELNRALILTLARATHVTDFFTGSDSIQGTWCKDILQTIMSFTPHNWASHTLSCFPGPLQAFFKQNNVPQESRFNLKKNVEEEYRKWKSMSNENDIITHFSMQGSPPLFLCLLWKMLLETDHINQIGYRVLERIGARALVAHVRTFADFLVYEFSTSAGGQQLNKCIEILNDMVWKYNIVTLDRLILCLAMRSHEGNEAQVCYFIIQLLLLKPNDFRNRVSDFVKENSPEHWLQNDWHTKHMNYHKKYPEKLYFEGLAEQVDPPVQIQSPYLPIYFGNVCLRFLPVFDIVIHRFLELLPVSKSLETLLDHLGGLYKFHDRPVTYLYNTLHYYEMHLRDRAFLKRKLVHAIIGSLKDNRPQGWCLSDTYLKCAMNAREENPWVPDDTYYCRLIGRLVDTMAGKSPGPFPNCDWRFNEFPNPAAHALHVTCVELMALAVSGKEVGNALLNVVLKSQPLVPRENITAWMNAIGLIITALPEPYWIVLHDRIVSVISSPSLTSETEWVGYPFRLFDFTACHQSYSEMSCSYTLALAHAVWHHSSIGQLSLIPKFLTEVLLPIVKTEFQLLYVYHLVGPFLQRFQQERTRCMIEIGVAFYDMLLNVDQCSTHLNYMDPICDFLYHMKYMFTGDSVKEQVEKIICNLKPALKLRLRFITHISKMEPAAVPPQAMNSGSPAPQSNQVPVSLPVTQ
Regarding B2, the binding result in test [4] is given as “binds”.
